Results from the supplement of paper PMC5949888.
± gives the standard deviation of the averaged measurements. Most values lie at the floor of the assay. Slopes are relative: functional sequences can read slightly below zero.

tested on: Saccharomyces cerevisiae PS128 hsf1 delta, HSF1(1-493) fusion; assay: growth estimate (transactivation domain function in HSF1 fusion, heat-shock survival) (a.u. (slope of normalised read count over time)); higher = stronger growth at 37°C, i.e. more transactivation activity; conditions: library: random library

| Substance | growth estimate |
| --- | --- |
| GKFL | < -0.25 |
| YYDSVPHLGSGTRS | < -0.25 |
| LLPLG | < -0.25 |
| PRTYVGAASWVTHGSGSTLG | < -0.25 |
| TESHFSIMNICRKPNWYQEK | < -0.25 |
| SLLYT | < -0.25 |
| RGPLPFSLSGNVRFDCPVHT | < -0.25 |
| RRTIFGCG | 0.112 |
| VVMDELVEVAELSDL | < -0.25 |
| DGLGSGTQNSNEAPLESIWP | -0.236 |
| PSSASRVQAGMQMMLRPKRR | < -0.25 |
| VLLQAWS | < -0.25 |
| MTIVERVRLAPSSTRGHPVI | < -0.25 |
| NRLVQA | < -0.25 |
| VPRIYTF | < -0.25 |
| IATQMTNIGELRMPRDTVL | < -0.25 |
| LPWGIDYQ | < -0.25 |
| VIRASH | < -0.25 |
| EIAEQLT | < -0.25 |
| QRIVNHRM | < -0.25 |
| PQIASSCHSLRRGENRPLKN | < -0.25 |
| LVYGQ | < -0.25 |
| GHPWGIGPPLLVLGLPKASS | < -0.25 |
| TWSHWGTSSWAD | < -0.25 |
| SFGVAFALSALIEMISQARF | < -0.25 |

As entered above:
growth estimate with VLLQAWS reads < -0.25
growth estimate with SLLYT reads < -0.25

Carrying on:

| Substance | growth estimate |
| --- | --- |
| LDCDWHPRSAKFDRGTSP | < -0.25 |
| RSPDARK | < -0.25 |
| RSDGVSGTLSRP | < -0.25 |
| IPLADGLEVQPGMECSRSWN | < -0.25 |
| YESKERITLHGRLATEHWSG | < -0.25 |
| DGGCPIVSPAP | < -0.25 |
| RHTGWPDHVYAWSYASPDDL | < -0.25 |
| PDHGTIRIKEHRIQLNTAVA | < -0.25 |
| LQYKV | < -0.25 |
| CQSGSQFGEASLRHALGCGW | < -0.25 |
| YIFRCSGLKCLLTKVWSQNY | -0.246 |
| ANTWPGFHGRPCRERCYSRC | < -0.25 |
| VRVLRLTALGSYSDLSVHLY | < -0.25 |
| AGWLTRSPDLSVALDWLGQL | < -0.25 |
| QVRLV | < -0.25 |
| VRLPTLTWSSQD | < -0.25 |
| PTI | -0.236 ± 0.024 |
| TRTDNRCA | < -0.25 |
| HIVIDRRSCGRHPTIVGMGV | < -0.25 |
| QNRRECNLGFKFCAEVHDTR | < -0.25 |
| FWGSSNGDHDDGCMHRPIEM | < -0.25 |
| MHGAQGSIISYILITLATLI | -0.25 |
| SAEGSV | < -0.25 |
| SFPG | -0.245 |
| DWPDSL | < -0.25 |

Nothing new here: an excerpt of the list.

| Substance | growth estimate |
| --- | --- |
| FWGSSNGDHDDGCMHRPIEM | < -0.25 |
| MHGAQGSIISYILITLATLI | -0.25 |
| SAEGSV | < -0.25 |
| SFPG | -0.245 |
| DWPDSL | < -0.25 |

Continued.

| Substance | growth estimate |
| --- | --- |
| WDLFQRIWSTDVSVGPHPCD | -0.243 |
| YRVRLPHCSVVSNSDSLIRP | < -0.25 |
| DLYLIKLGLDMWRDLG | < -0.25 |
| VKRRLNLRERRTRTAG | < -0.25 |
| DCVLSRLKLGNLVRVLSIVP | < -0.25 |
| QPEIQGEIVGARRRNLWDST | < -0.25 |
| TLKYPNSTRQSFEVLSSRLR | < -0.25 |
| LKAKDLSICGCTSPRMSVGS | < -0.25 |
| LEML | < -0.25 |
| GSPNGSIDDLADGVYPT | < -0.25 |
| RLQDI | < -0.25 |
| KRHLSDVSSFAS | < -0.25 |
| RTCA | < -0.25 |
| RDPTKHGYRKLASDVQAGSL | < -0.25 |
| ECFPTMPGITVISLPLERRL | < -0.25 |
| QSSFQKLAPLLLGSFDGHSA | < -0.25 |
| GRWAPTL | < -0.25 |
| WSH | -0.236 |
| TRLEASPAYQFPERTRATGS | < -0.25 |
| GDMWAWVSTARNQRRFPNDV | < -0.25 |
| DQADVGVVYIVP | < -0.25 |
| GVRWEHSKFYATGPRMGRIC | -0.246 |
| RNVEEVSRDSDSPYR | < -0.25 |
| NLAVGWRSSHPGY | < -0.25 |
| GSKRYVLPAGFEGYEGQVVH | < -0.25 |

| Substance | growth estimate |
| --- | --- |
| HSPCYARFISNRTRL | < -0.25 |
| NSLPSCLTGEVHVSEWPYAR | < -0.25 |
| IICTDAGM | < -0.25 |
| YPSRKLLVETKRLQISTNRL | -0.243 |
| KPVSLTRKLLSKNSSGCCAR | < -0.25 |
| VWLCWYTAQYKVMREA | -0.178 |
| GLM | 0.183 |
| GWDVGHARQSCAHGI | < -0.25 |
| VRGATE | < -0.25 |
| SLGSWSCFR | < -0.25 |
| TYRVQQAAGEEVRHSRDKG | < -0.25 |
| HCILAPGAVQHQYCLDAL | < -0.25 |
| DLQSVGPMIPARCPIIRLPS | < -0.25 |
| IGGGFRVNVRSLTRLLRPLH | < -0.25 |
| AQPPNHEGGVCLATYSASAG | < -0.25 |
| TRAPRAQNHMHFLSLRTTPN | < -0.25 |
| RTRKAYSIHM | < -0.25 |
| PRYLFSPVSRDLN | -0.237 |
| IQGPYEHNHSTRYTLLPISC | < -0.25 |
| SVLIPFVAVEDSLINKP | < -0.25 |
| LGEFIRRELTSVALVPLRGY | -0.243 |
| RRRA | < -0.25 |
| VSCLKLTRSYPTWI | < -0.25 |
| QVSVTWSFGCLLEFADFKVH | -0.157 |
| KAEKKVLVRVRV | < -0.25 |
